Test [1] addresses wild-type GFP-ATG5 (mouse) (UniProt Q99J83). Description: affinity purification with mass spectrometry; GFP-Trap SILAC proteomics from atg3-/- MEFs stably expressing GFP, WT GFP-ATG5 or GFP-ATG5 K130R, after nutrient starvation; hits: peptide count 2 or more, >2-fold enriched over GFP and GFP-ATG5 K130R; bait expressed alongside endogenous ATG5.
The target is the same in test [2]. Description: affinity purification with mass spectrometry; GFP-Trap immunoisolation from lysates of SILAC-labelled atg5-/- MEFs stably expressing GFP, WT GFP-ATG5 or GFP-ATG5 K130R, starved 1 h; LC-MS/MS; hits: 2 or more peptides, >2-fold enrichment over GFP.
A further test has as its target T1, GFP-ATG5 K130R (mouse) (UniProt Q99J83).
T1 sequence: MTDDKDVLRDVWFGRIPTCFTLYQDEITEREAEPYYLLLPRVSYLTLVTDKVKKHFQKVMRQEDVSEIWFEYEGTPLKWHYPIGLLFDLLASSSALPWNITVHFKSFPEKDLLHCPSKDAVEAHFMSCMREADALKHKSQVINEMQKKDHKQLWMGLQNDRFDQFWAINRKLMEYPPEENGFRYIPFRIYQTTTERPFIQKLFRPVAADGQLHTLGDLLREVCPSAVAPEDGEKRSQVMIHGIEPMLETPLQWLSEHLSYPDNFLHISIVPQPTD
The test is described as above.

Chains of the proteins cited; added tags and fusions are not shown.
UniProt Q3UHJ0: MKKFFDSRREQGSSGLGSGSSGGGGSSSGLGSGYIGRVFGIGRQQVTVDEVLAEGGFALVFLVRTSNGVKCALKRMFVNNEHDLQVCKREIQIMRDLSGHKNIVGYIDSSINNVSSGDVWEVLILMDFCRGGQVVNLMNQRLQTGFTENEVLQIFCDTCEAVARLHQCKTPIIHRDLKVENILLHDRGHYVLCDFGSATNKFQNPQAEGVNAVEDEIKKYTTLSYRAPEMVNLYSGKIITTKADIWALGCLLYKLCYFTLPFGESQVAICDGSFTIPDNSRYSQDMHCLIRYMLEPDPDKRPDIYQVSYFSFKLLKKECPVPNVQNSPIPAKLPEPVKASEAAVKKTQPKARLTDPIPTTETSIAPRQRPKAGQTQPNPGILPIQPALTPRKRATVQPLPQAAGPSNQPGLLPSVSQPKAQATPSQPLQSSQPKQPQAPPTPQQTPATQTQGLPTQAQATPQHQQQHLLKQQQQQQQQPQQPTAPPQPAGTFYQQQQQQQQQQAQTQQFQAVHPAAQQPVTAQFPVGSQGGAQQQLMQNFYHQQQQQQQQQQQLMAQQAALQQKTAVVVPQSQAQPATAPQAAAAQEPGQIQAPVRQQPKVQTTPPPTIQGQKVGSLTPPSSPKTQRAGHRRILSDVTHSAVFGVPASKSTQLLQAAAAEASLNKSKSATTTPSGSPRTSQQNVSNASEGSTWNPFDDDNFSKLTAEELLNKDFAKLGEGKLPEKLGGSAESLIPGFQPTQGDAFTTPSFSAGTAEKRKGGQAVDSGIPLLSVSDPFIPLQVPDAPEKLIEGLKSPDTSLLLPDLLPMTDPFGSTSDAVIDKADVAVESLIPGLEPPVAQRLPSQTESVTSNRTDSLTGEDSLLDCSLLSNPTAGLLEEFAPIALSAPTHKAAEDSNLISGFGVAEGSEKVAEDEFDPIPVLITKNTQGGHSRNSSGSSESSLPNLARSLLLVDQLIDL
UniProt P17426: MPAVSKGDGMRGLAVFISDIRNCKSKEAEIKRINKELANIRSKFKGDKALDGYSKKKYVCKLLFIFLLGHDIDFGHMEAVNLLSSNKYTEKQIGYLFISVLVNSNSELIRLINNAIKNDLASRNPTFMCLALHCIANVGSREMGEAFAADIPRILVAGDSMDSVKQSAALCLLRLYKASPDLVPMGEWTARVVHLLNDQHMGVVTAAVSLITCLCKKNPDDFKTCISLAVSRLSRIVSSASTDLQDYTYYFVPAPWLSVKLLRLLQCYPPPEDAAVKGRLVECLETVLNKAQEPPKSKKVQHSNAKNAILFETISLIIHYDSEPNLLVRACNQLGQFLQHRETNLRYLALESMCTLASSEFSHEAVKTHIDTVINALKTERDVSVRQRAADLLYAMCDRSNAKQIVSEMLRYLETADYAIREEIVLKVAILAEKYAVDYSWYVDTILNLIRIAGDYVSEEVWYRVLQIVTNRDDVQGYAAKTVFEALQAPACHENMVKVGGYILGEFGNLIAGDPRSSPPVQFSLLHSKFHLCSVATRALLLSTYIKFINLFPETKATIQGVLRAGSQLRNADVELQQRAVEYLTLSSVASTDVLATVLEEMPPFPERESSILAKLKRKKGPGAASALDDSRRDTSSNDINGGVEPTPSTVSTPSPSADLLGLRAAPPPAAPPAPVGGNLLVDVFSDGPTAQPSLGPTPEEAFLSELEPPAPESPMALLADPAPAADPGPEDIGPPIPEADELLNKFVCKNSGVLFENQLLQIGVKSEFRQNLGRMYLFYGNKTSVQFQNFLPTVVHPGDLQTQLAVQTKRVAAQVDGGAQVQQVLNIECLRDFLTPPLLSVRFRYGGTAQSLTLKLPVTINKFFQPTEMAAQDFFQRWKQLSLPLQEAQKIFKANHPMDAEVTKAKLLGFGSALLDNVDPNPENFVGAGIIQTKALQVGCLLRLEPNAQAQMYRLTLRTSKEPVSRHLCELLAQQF
UniProt Q8CHC4: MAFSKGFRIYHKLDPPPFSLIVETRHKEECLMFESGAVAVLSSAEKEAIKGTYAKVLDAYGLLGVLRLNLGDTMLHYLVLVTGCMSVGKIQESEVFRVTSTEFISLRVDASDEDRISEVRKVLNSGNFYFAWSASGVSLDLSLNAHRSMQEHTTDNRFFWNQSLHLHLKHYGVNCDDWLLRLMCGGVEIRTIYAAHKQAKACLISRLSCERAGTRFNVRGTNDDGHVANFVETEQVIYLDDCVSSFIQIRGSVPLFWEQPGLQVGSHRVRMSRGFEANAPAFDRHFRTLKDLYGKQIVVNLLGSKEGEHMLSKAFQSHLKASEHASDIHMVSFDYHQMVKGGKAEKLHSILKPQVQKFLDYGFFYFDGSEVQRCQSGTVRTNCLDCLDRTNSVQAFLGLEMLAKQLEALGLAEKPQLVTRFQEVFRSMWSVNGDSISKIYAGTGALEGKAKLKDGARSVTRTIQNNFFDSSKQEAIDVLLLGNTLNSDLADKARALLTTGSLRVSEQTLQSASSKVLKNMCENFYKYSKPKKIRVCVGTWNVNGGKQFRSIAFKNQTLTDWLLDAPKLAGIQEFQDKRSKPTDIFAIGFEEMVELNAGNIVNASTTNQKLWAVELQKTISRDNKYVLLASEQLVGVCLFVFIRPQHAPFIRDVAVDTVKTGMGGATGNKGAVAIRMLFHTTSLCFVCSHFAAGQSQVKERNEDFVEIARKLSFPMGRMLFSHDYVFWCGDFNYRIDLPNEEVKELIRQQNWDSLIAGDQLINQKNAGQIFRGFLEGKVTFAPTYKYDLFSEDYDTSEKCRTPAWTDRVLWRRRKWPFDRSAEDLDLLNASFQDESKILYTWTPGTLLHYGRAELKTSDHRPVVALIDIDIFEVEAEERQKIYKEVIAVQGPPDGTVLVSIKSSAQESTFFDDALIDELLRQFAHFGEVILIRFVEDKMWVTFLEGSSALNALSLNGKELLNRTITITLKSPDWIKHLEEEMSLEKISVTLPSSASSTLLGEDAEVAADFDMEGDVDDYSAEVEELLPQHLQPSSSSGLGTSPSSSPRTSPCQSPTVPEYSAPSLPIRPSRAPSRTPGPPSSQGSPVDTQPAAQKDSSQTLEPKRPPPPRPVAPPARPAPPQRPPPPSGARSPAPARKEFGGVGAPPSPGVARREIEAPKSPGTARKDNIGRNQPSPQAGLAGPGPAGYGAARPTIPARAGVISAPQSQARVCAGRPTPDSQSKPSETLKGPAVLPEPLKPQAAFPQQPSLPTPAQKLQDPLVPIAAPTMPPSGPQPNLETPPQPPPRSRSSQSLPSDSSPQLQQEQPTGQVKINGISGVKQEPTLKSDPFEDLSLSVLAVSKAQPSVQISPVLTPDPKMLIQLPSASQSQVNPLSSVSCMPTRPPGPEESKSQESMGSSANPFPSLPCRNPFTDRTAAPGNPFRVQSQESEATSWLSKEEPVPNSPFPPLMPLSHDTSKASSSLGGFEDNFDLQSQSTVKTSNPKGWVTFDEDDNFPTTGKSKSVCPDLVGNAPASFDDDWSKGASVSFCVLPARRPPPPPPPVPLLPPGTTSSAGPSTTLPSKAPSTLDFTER
UniProt P60521: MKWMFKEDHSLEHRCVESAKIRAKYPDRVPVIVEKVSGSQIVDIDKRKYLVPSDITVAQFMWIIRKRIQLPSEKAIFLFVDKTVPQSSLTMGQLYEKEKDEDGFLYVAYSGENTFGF
UniProt Q9CPX6: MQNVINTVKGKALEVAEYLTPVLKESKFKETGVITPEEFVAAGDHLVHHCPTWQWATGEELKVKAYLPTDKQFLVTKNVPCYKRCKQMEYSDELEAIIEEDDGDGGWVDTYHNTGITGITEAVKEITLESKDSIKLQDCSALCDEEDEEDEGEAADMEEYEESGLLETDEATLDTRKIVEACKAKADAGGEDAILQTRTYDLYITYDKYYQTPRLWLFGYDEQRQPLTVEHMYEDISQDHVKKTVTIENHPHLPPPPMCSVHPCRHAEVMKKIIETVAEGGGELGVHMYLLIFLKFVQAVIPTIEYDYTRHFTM
UniProt Q9ESK9: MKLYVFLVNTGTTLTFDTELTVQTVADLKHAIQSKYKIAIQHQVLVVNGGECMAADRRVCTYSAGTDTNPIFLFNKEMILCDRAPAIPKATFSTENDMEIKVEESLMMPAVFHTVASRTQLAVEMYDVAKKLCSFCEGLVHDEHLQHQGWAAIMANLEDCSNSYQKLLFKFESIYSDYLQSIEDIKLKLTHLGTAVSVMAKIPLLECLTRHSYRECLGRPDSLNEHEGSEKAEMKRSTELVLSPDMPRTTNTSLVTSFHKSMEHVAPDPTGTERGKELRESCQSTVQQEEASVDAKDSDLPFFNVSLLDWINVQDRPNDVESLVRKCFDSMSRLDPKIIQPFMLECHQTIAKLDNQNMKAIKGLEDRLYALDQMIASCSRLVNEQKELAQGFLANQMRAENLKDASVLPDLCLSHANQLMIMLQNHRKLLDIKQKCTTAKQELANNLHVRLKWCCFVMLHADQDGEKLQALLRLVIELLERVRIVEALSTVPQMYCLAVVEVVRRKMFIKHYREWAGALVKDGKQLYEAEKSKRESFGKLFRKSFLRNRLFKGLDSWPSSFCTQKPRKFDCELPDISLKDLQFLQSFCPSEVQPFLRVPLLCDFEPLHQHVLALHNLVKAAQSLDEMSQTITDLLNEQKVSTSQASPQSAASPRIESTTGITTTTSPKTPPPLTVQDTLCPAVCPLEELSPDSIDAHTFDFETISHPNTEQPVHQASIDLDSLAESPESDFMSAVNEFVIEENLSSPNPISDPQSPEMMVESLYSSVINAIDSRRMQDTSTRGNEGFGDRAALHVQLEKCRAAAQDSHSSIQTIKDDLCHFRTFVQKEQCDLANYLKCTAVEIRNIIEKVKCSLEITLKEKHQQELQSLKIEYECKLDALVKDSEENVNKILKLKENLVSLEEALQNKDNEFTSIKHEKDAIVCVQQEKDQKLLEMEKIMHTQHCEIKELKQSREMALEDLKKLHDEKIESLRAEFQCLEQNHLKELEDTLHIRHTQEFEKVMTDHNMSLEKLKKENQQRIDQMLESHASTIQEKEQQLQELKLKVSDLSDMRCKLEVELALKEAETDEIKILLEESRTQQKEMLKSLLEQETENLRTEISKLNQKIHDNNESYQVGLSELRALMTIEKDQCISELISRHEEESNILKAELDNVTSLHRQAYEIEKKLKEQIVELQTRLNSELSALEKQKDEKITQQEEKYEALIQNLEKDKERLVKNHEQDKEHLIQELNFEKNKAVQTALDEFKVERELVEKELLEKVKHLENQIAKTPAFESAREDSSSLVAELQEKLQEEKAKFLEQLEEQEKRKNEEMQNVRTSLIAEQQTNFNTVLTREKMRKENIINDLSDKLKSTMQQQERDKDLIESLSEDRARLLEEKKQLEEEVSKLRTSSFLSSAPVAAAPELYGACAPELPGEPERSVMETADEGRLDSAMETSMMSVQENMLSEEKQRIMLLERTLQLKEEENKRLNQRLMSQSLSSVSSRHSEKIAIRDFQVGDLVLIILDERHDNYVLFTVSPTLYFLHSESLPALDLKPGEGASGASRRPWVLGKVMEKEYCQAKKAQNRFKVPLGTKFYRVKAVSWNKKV
UniProt P17427: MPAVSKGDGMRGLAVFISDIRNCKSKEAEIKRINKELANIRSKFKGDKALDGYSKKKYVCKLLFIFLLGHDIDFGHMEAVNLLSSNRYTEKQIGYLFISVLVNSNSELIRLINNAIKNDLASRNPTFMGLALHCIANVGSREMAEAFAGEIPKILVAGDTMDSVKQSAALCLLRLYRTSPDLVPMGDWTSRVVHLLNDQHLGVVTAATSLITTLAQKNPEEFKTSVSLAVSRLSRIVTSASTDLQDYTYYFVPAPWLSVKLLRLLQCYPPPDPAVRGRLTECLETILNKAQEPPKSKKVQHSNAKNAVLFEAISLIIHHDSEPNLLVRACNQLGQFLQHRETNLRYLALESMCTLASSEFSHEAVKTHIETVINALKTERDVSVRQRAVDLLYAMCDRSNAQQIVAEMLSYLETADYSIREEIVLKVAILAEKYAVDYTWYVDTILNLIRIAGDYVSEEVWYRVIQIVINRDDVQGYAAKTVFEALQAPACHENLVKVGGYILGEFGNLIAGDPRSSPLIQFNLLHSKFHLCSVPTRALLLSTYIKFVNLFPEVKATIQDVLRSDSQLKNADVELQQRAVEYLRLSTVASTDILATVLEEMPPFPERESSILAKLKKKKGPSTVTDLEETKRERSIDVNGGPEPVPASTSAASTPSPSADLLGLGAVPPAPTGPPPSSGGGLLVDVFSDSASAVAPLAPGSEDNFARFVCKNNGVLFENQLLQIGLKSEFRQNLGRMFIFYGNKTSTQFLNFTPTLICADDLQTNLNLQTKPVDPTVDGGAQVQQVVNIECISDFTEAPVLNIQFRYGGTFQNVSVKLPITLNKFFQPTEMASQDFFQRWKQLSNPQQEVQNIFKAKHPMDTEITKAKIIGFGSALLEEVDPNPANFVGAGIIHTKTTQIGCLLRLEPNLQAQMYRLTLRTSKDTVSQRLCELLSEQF

Results are given in words; binding and its absence hold for the method and conditions named. Binding seen in cells or lysates may run through a third protein. Here binding means that the protein was enriched with, or labelled near, the bait; the list need not be complete. For some of these results: Sequences can lack the tags named with a protein.

Regarding ATG12 (from UniProt Q9CQY1 1-141), the binding entry in test [1] is “binds”.
On to “clathrin adaptor AP1 subunit G1 (from UniProt P22892 1-822)”, for which the binding entry in test [2] is listed as “binds”.
Still for that read-out and setting: with “AAK1 [AP2 associated kinase 1] (from UniProt Q3UHJ0 1-959)” the entry was “binds”.
Consider “PIK3C2A (phosphatidylinositol-4-phosphate 3-kinase catalytic subunit type 2 alpha) (from UniProt Q61194 1-1686)”, for which the binding entry in test [2] and in test [1] was “binds” in each case.
With ATG2A (from UniProt Q6P4T0 1-1914), the binding result with GFP-ATG5 K130R (mouse) is reported as “binds”.
“clathrin adaptor AP2 subunit A1 (from UniProt P17426 1-977)”: in test [2], the binding entry was “binds”.
As to “DNMBP [dynamin binding protein] (from UniProt Q6TXD4 1-1580)”, the binding entry in test [2] is listed as “binds”.
On the same count and under the same terms, with “SYNJ1 [synaptojanin 1] (from UniProt Q8CHC4 1-1574)” the entry was “binds”.
As to “GABARAPL2/GATE-16 (from UniProt P60521 1-117)”, the binding result in test [2] and in test [1] was “binds” each time.
For the molecule ATG3 (from UniProt Q9CPX6 1-314), in test [2], the binding entry is given as “binds”.
As for “RBCC1 (RB1-inducible coiled-coil 1) (from UniProt Q9ESK9 1-1588)”, in test [2], the binding entry was “binds”.
Turning to “clathrin adaptor AP2 subunit A2 (from UniProt P17427 1-938)”, the binding entry in test [2] was “binds”.
Still for that read-out and setting: the same measure for “IGF2R/CI-M6PR (insulin-like growth factor 2 receptor) (from UniProt Q07113 36-2483)”: “binds”.

B1: CLTA [clathrin, light polypeptide (Lca)] (protein, UniProt O08585 1-235)
chain: MAELDPFGAPAGAPGGPALGNGVAGAGEEDPAAAFLAQQESEIAGIENDEAFAILDGGAPGRATRRAAGGPDAVDGVMNGEYYQESNGPTDSYAAISEVDRLQSEPESIRKWREEQTERLEALDANSRKQEAEWKEKAIKELEEWYARQDEQLQKTKANNRVADEAFYKQPFADLIGYVAAEEAFVNDIDESSPGTEWERVARLCDFNPKSSKQAKDVSRMRSVLISLKQAPLVH
As for B1, the binding result in test [2] and in test [1] was “binds” in each case.

B2: PICALM [phosphatidylinositol binding clathrin assembly protein] (protein, UniProt Q7M6Y3 1-660)
chain: MSGQSLTDRITAAQHSVTGSAVSKTVCKATTHEIMGPKKKHLDYLIQCTNEMNVNIPQLADSLFERTTNSSWVVVFKSLITTHHLMVYGNERFIQYLASRNTLFNLSNFLDKSGLQGYDMSTFIRRYSRYLNEKAVSYRQVAFDFTKVKRGADGVMRTMNTEKLLKTVPIIQNQMDALLDFNVNSNELTNGVINAAFMLLFKDAIRLFAAYNEGIINLLEKYFDMKKNQCKEGLDIYKKFLTRMTRISEFLKVAEQVGIDRGDIPDLSQAPSSLLDALEQHLASLEGKKIKDSTAASRATTLSNAVSSLASTGLSLTKVDEREKQAALEEEQARLKALKEQRLKELAKKPHTSLTTAASPVSTSAGGIMTAPAIDIFSTPSSSNSTSKLPNDLLDLQQPTFHPSVHAMSAAPQGASTWGDPFSATLDAVEDAIPSLNPFLTKSSGDVHLPIASDVSTFTTRTPTHEMFVGFSPSPVAQPHSSAGLNVDFESVFGNKSTNVAVDSGGFDELGGLLKPTVASQNQSLPVAKLPPNKLVSDDLDSSLANLVGNLGIGNGTTKNDVSWSQPGEKKLTGGSNWQPKVAPTTAWSAATMNGMHFPQYAPPVMAYPATTPTGMIGYGIPPQMGSVPVMTQPTLIYSQPVMRPPNPFGPVSGAQIQFM
As for B2, in test [2], the binding entry is “binds”.

B3: ATG7 (protein, UniProt Q9D906 1-698)
chain: MGDPGLAKLQFAPFNSALDVGFWHELTQKKLNEYRLDEAPKDIKGYYYNGDSAGLPTRLTLEFSAFDMSASTPAHCCPAMGTLHNTNTLEAFKTADKKLLLEQSANEIWEAIKSGAALENPMLLNKFLLLTFADLKKYHFYYWFCCPALCLPESIPLIRGPVSLDQRLSPKQIQALEHAYDDLCRAEGVTALPYFLFKYDDDTVLVSLLKHYSDFFQGQRTKITVGVYDPCNLAQYPGWPLRNFLVLAAHRWSGSFQSVEVLCFRDRTMQGARDVTHSIIFEVKLPEMAFSPDCPKAVGWEKNQKGGMGPRMVNLSGCMDPKRLAESSVDLNLKLMCWRLVPTLDLDKVVSVKCLLLGAGTLGCNVARTLMGWGVRHVTFVDNAKISYSNPVRQPLYEFEDCLGGGKPKALAAAERLQKIFPGVNARGFNMSIPMPGHPVNFSDVTMEQARRDVEQLEQLIDNHDVIFLLMDTRESRWLPTVIAASKRKLVINAALGFDTFVVMRHGLKKPKQQGAGDLCPSHLVAPADLGSSLFANIPGYKLGCYFCNDVVAPGDSTRDRTLDQQCTVSRPGLAVIAGALAVELMVSVLQHPEGGYAIASSSDDRMNEPPTSLGLVPHQIRGFLSRFDNVLPVSLAFDKCTACSPKVLDQYEREGFTFLAKVFNSSHSFLEDLTGLTLLHQETQAAEIWDMSDEETV
Consider B3, for which the binding entry in test [2] and in test [1] was “binds” in each case.

B4: GAK [cyclin G associated kinase] (protein, UniProt Q99KY4 1-1305)
chain: MSLLQSALDFLAGPGSLGGAAGRDQSDFVGQTVELGELRLRVRRVLAEGGFAFVYEAQDLGSGREYALKRLLSNEEEKNRAIIQEVCFLKKLSGHPNIVQFCSAASIGKEESDTGQAEFLLLTELCKGQLVEFLKRVECKGPLSCDSILKIFYQTCRAVQHMHRQKPPIIHRDLKVENLLLSNQGTIKLCDFGSATTISHYPDYSWSAQKRAMVEEEITRNTTPMYRTPEIVDLYSNFPIGEKQDIWALGCILYLLCFRQHPFEDGAKLRIVNGKYSIPVNDTRYTVFHDLIRAMLKVNPVERLSIAEVVRQLQEIAAARNVNPKAPITELLEQNGGYGNSGPSRAQPPCGGTVNSSGVLALAEYDQPYGGFLDILRGGTERLFTNLKDTSSKVIQSVANYAKGDLDISYITSRIAVMSFPAEGVESAIKNNIEDVRMFLDAKHPGHYAVYNLSPRIYRASKFHNRVTECGWAVRRAPHLHSLYTLCRSMHAWLREDHRNVCVVHCMDGRAASAVAVCAFLCFCRLFSTAEAAVYMFSMKRCPPGIWPSHKRYIEYVCDMVAEEPITPHSKPMLVKSVVMTPVPLFSKQRNGCRPFCEVYVGEERVTTTSQEYDRMKEFKIEDGKAVIPLGVTVQGDVLIIIYHARATLGGRLQAKMASMKMFQIQFHTGFVPRNATTVKFAKYDLDACDIQEKYPDLFQVNLEVEVEPRDRPSREAPPWENTSLRGLNPKILFSNREEQQDILSKFGKPELPRQPGSTAQYDAEAGSPEAEITESDSPQSSSTDTNHFLHTLDWQEEKEPETGLDNTSPKESQSVLIADGDGSEVSDEEEASFPSEERKPGAGEDTPRLAAGTKQQDLIFDVGMLAAPQEPVQPEEGVDLLGLHSEGDLRPAAPLQACGVPSSNTDLLSCLLEPSDAAQVGPPGDLLGGEAPLLLASPVSPLGLQNNLQGKVPDTVDPFDQFLLSSNSDTQPCSKPDLFGEFLNSDSVASSTAFPSTHSAPPPSCSTAFLHLGDLPAEPSKVIASSSHPDLLGGWDTWADTATPGPASIPVPEGTLFSSAGHPAPPGPNPSQTKSQNLDPFADLSDLSSSLQGLPAGLPAGGFVGAPAPTQKSNSPWQANRPTAPGTSWTPQAKPAPRASEQLRSHFSVIGAREERGVRVPSFAQKPKVSENDFEDLLPNQGFSKSDKKGPKTMAEMRKQELARDTDPLKLKLLDWIEGKERNIRALLSTLHTVLWDGESRWTPVSMADLVTPEQVKKQYRRAVLVVHPDKATGQPYEQYAKMIFMELNDAWSEFENQGSRPLF
As for B4, in test [2], the binding entry is given as “binds”.

B5: HIP1 [huntingtin interacting protein 1] (protein, UniProt Q8VD75 1-1029)
chain: MDRMASSMKQVSNPLPKVLSRRGVGAGMEAAERESFERTQTVSVNKAINTQEVAVKEKHARTCILGTHHEKGAQTFWSVVNRLPLSSNAMLCWKFCHVFHKLLRDGHPNVLKDSLRYKNELSDMSRMWGHLSEGYGQLCSIYLKLLRTRMEYHTKNPRFPGNLQMSDRQLDEAGESDVNNFFQLTVEMFDYLECELNLFQTVFNSLDMSRSVSVTTAGQCRLAPLIQVILDCSHLYDYTVKLLFKLHSCLPADTLQGHRDRFMEQFTKLKDLFQRSSNLQYFKRLIQIPQLPENPPNFLRASALSEHISPVVVIPAEVSSPDSEPVLEKDDLMDMDASQQTLFDNKFDDVFGSSLSSDPFNFNNQNGVNKDEKDHLIERLYREISGLTGQLDNMKIESQRAMLQLKGRVSELEAELAEQQHLGRQAMDDCEFLRTELDELKRQREDTEKAQRSLTEIERKAQANEQRYSKLKEKYSELVQNHADLLRKNAEVTKQVSVARQAQVDLEREKKELADSFARTQEQQDVLENLKHELATSRQELQVLHSNLETSAQSEAKWLTQIAELEKEQGSLATVAAQREEELSALRDQLESTQIKLAGAQESMCQQVKDQRKTLLAGIRKAAEREIQEALSQLEEPTLISCAGSTDHLLSKVSSVSSCLEQLEKNGSQYLACPEDISELLHSITLLAHLTGDTIIQGSATSLRAPPEPADSLTEACRQYGRETLAYLSSLEEEGTMENADVTALRNCLSRVKTLGEELLPRGLDIKQEELGDLVDKEMAATSAAIEAATTRIEEILSKSRAGDTGVKLEVNERILGSCTSLMQAIKVLVVASKDLQKEIVESGRGTASPKEFYAKNSRWTEGLISASKAVGWGATIMVDAADLVVQGKGKFEELMVCSREIAASTAQLVAASKVKANKGSLNLTQLQQASRGVNQATAAVVASTISGKSQIEETDSMDFSSMTLTQIKRQEMDSQVRVLELENDLQKERQKLGELRKKHYELAGVAEGWEEGTEASPSTVQEAIPDKE
Consider B5, for which, in test [2], the binding result is “binds”.

Source of the values: paper PMC9015699.
